PubChem BioAssay AID1224826 – NIAID | 2016
The deposit covers about 17,000 reagents; this is a random part of them. About 1,110 of all reagents (6.6%) count as active. 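Active means lowered or raised reporter signal; replicate intensities are raw and not normalised per plate.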 Unmarked entries are inactive. Not all columns of the deposit are shown.

Purpose: 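Knock-downs that raise or lower Tnf reporter signal after endotoxin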 (primary screen)
Cell system: RAW264.7 G9 macrophages from mouse bearing reporters for p65 (GFP) and the Tnf promoter (mCherry)
Reagents: siRNA pool against mouse genes, 100 nM
Timing: 16 h of LPS stimulation, after 2 days of siRNA transfection
Conditions: bacterial lipopolysaccharide (Salmonella minnesota R595), 10 ng/ml
Measured: 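Imaged Tnf reporter mCherry in nuclei, minus background, normalised per plate to the median and expressed as robust z-scores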
Scale: Tnf reporter robust z-score: higher = stronger Tnf promoter reporter signal after LPS
Rule for the call: 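Called active when robust z-score is at most -1.3, matching the median of the Tlr4 knock-down control, or over 3; control wells and wells with under 50 cells never active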
Meaning of the calls: active = Tnf reporter clearly lowered or raised; inactive = no clear change in Tnf reporter

| gene symbol | Tnf reporter robust z-score | fewer than 50 cells in well |
| --- | --- | --- |
| Psg28 (pregnancy-specific beta-1-glycoprotein 28) | -0.7 | enough cells in well |
| Rorb (RAR-related orphan receptor beta) | 0.01 | enough cells in well |
| B230325K18Rik (RIKEN cDNA B230325K18 gene) | -0.12 | enough cells in well |
| Npy6r (neuropeptide Y receptor Y6) | -0.6 | enough cells in well |
| Afp (alpha fetoprotein) | -1.24 | enough cells in well |
| R74862 (expressed sequence R74862) | 0.59 | enough cells in well |
| Pcdh20 (protocadherin 20) | 1.62 | enough cells in well |
| Hsd3b2 | – | fewer than 50 cells per well; well left out of calls |
| Ear10 (eosinophil-associated, ribonuclease A family, member 10) | -0.57 | enough cells in well |
| Sez6 (seizure related gene 6) | -0.23 | enough cells in well |
| Ttpa (tocopherol (alpha) transfer protein) | -0.01 | enough cells in well |
| Oasl1 (2'-5' oligoadenylate synthetase-like 1) | 0.14 | enough cells in well |
| Mrpl2 (mitochondrial ribosomal protein L2) | 2.8 | enough cells in well |
| Atp6v1c1 (ATPase, H+ transporting, lysosomal V1 subunit C1) | 0.44 | enough cells in well |
| Or5w8 (olfactory receptor family 5 subfamily W member 8) | -1.02 | enough cells in well |
| Traf7 (TNF receptor-associated factor 7) | 1.68 | enough cells in well |
| Reg3d (regenerating islet-derived 3 delta) | -1.23 | enough cells in well |
| Sos1 (SOS Ras/Rac guanine nucleotide exchange factor 1) | 0.25 | enough cells in well |
| Tmc3 (transmembrane channel-like gene family 3) | 2.51 | enough cells in well |
| Cimip2a (ciliary microtubule inner protein 2A) | – | fewer than 50 cells per well; well left out of calls |
| 1700025G04Rik (RIKEN cDNA 1700025G04 gene) | -1.46 (active) | enough cells in well |
| Pacsin2 (protein kinase C and casein kinase substrate in neurons 2) | – | fewer than 50 cells per well; well left out of calls |
| Slc35e1 | 0.11 | enough cells in well |
| Utp4 (UTP4 small subunit processome component) | 0.2 | enough cells in well |

Looked up above:
Entry for Ear10 (eosinophil-associated, ribonuclease A family, member 10) in “Tnf reporter robust z-score”: -0.57
For “fewer than 50 cells in well”, Ttpa (tocopherol (alpha) transfer protein) reads enough cells in well
